At least one structure is not confirmed: it was looked up by name or label, or the drawing left a doubt.
Test system: cytochrome c
Test: Detection of cytochrome c release
Assay type: cell-based, rat
Settings: inhibitor added to Compound 3 + SNP
Experimental: Detection of Cytochrome c Release Reaction Cells were trypsinized and centrifuged at 800×g for 10 minutes. Then, the cell pellet was re-suspended in 50 μL of extraction buffer containing 20 mmol/L HEPES, pH 7.5, 10 mmol/L KCl, 1.5 mmol/L MgCl2, 1 mmol/L EDTA, 1 mmol/L EGTA, 1 mmol/L dithithretol, 1 mmol/L PMSF) and incubated for 3 minutes on ice. Cells were managed with 30 strokes and centrifuged at 15,000×g for 15 minutes at 4° C. Aliquots of 20 μg protein were resolved on 15% SDS-polyacrylamide gel and then blotted to PVDF membranes. Membranes were incubated with anti-cytochrome c monoclonal antibody. Then, membranes were incubated with anti-mouse IgG and the expression of cytochrome c was detected as described previously.
Western Blot Analysis After the exposure of cells to the indicated agents for four (for Bcl-2) or six (for cytochrome c) hours, cells were washed twice with ice-cold PBS and reaction was terminated by the addition of 100 μL ice-cold lysis buffer (10 mmol/L Tris-HCl, pH 7.4, 150 mmol/L NaCl, 1 mmol/L EGTA, 0.5 mmol/L phenylmethylsulfonyl fluoride (PMSF), 10 μg/mL aprotinin, 10 μg/mL leupeptin, and 1% Triton X-100). […] Protein content was determined by the Bio-Rad protein assay (Bio-Rad Laboratories, CA, USA). […]

COC[C@H]1OC(=O)c2coc3c2[C@@]1(C)C1=C(C3=O)[C@@H]2CCC(=O)[C@@]2(C)C[C@H]1OC(C)=O [wortmannin]
effect on preventive action of Compound 3 (cytochrome c release): fully reversed

Source: patent US6943186B2, “Methods of treating sepsis” (Yung Shin Pharmaceutical Ind. Co., Ltd., priority 2002, dated 2005)
